Assay results taken from PubChem BioAssay AID485298 (National Center for Advancing Translational Sciences (NCATS), 2010).
Among all 320,000 compounds or so, about 740 (0.23%) were called active. This list was built around the results that the source calls inconclusive (neither active nor inactive); the mix of calls is not that of the screen. The call rests on the fitted dose curve; in most records, active means well fitted activation curve with a large enough effect; inconclusive means small, poorly fitted or top-dose-only effect; inactive means no such curve, though single readings can be large or run the other way. Potencies of inconclusive entries are doubtful fits and often do not repeat.

test: qHTS Assay for Small Molecule Inhibitors of Mitochondrial Division or Activators of Mitochondrial Fusion; further: nearly all actives have a fitted effect of over 45% in size; on growth rescue (activation): % of control where 0% means no effect; details: S. cerevisiae fusion-defective mutant growth rescue, CellTiterGlo 48 h; growth rescue (activation): at 46.1 µM (top of the series) unless noted
Outline: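 Temperature-sensitive fusion-defective S. cerevisiae (e.g. fzo1-1, mgm1-5) were grown with compound in YPEG medium (3% ethanol, 3% glycerol) for 48 hours at 37C. Growth rescue was measured as viability by CellTiterGlo luminescence after 10 minutes at ambient.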
Potency means the concentration at half of the fitted maximal effect.

SMILES | Potency | growth rescue (activation)
O=C(c1cc(-c2ccc(Br)cc2)nc2ccccc12)N1CCN(c2ccccc2O)CC1 | inconclusive: 3.55 µM [activator, single point] | 
Nc1c(C(=O)Nc2ccc3c(c2)OCCO3)nnn1Cc1cccc(Br)c1 | inconclusive: 2.82 µM [activator, full curve] | 
COc1ccc(/C=C(\C#N)C(=O)Nc2cc(C)c(Cl)cc2OC)cc1O |  | inactive: 10.3%
CCc1nc2oc3cc(OC)ccc3c(=O)c2c(=O)n1Cc1ccco1 |  | inactive: 7.99%
C/C(=N\NC(=O)CCc1ccc(S(=O)(=O)N2CCOCC2)cc1)c1ccc(OC(F)F)cc1 | inconclusive: 25.1 µM [activator, single point] | 
Cc1noc(C)c1CSCC(=O)Nc1cc(Cl)ccc1N1CCCCC1 | inconclusive: 35.5 µM [activator, single point] | 
CN(CC(=O)Nc1cccc(F)c1)C(=O)c1cccnc1Sc1ccc(Cl)cc1 | inconclusive: 35.5 µM [activator, single point] | 
CCOC(=O)C(CC)Sc1nc2c(c(=O)[nH]c(=O)n2C)n1CCc1ccccc1 (centres undefined) |  | inactive: 1.39%
COc1ccc(-c2oc3ccccc3c2C#CC(C)(C)O)cc1 | inconclusive: 15.8 µM [activator, single point] | 
CCCOc1ccc(-c2cc(C(=O)NCC3CCCO3)c3ccccc3n2)cc1 (centres undefined) | inconclusive: 5.62 µM [activator, single point] | 
O=C(c1ccc(F)cc1)N(NC(=O)C(O)(c1ccccc1)c1ccccc1)c1ccccc1 | inconclusive: 11.2 µM [activator, partial curve] | 
CN1CCN(c2ccc(NS(=O)(=O)c3ccc(Cl)cc3)cn2)CC1 | inconclusive: 5.62 µM [activator, single point] | 
Cc1ccc(Sc2c(C=O)c3ccccc3n2C)cc1 | inconclusive: 35.5 µM [activator, single point] | 
CC1(C)O[C@@H]2C[C@H]3[C@@H]4CCC5=CC(=O)C=C[C@]5(C)[C@@]4(F)[C@@H](O)C[C@]3(C)[C@]2(C(=O)CO)O1 | active: 12.6 µM | 
COc1cccc(CNc2nc(-c3cccnc3)nc3ccccc23)c1 | inconclusive: 31.6 µM [activator, single point] | 
Cc1ccc(CNC(=O)c2ccc(C)c(S(=O)(=O)N3CCCCC3)c2)cc1 | inconclusive: 5.62 µM [activator, single point] | 
O=C(c1cc(-c2ccc(Br)cc2)n[nH]1)N1CCN(C(=O)c2ccccc2Br)CC1 |  | inactive: -9.21%
CCOC(=O)C1CCN(CC(C)(C)NS(=O)(=O)c2ccc(C)cc2)CC1 | active: 3.55 µM | 
O=C(Nc1ccccc1Cc1ccccc1)c1ccccc1F | inconclusive: 35.5 µM [activator, single point] | 
Cc1ccc(Sc2c(O)c3ccccc3n(C)c2=O)cc1 | active: 14.1 µM | 
CCCc1nnc(-c2ccc(OC)cc2)o1 | inconclusive: 31.6 µM [activator, single point] | 
COc1ccc(Br)cc1Cn1nnc(C(=O)Nc2ccc3c(c2)OCCO3)c1N | active: 10 µM | 

SMILES | Potency | growth rescue (activation)
O=C(Nc1nc(-c2cccc([N+](=O)[O-])c2)cs1)C(c1ccccc1)c1ccccc1 | inconclusive: 5.01 µM [activator, partial curve] | 
CCc1cc(C(=O)N2CCCC(N3CCN(c4cccc(C(F)(F)F)c4)CC3)C2)n(C)n1 (centres undefined) |  | inactive: -6.4%
N#Cc1ccccc1S(=O)(=O)N1CCN(C(=O)c2cc3c(s2)CCC3)CC1 |  | inactive: 17.2%
Cc1cc2oc(=O)cc(Cn3ccnc3)c2cc1Cl | inconclusive: 25.1 µM [activator, partial curve, poor fit] | 
CCn1c(C(=O)NCCCc2ccccc2)cc2sccc21 | inconclusive: 12.6 µM [activator, partial curve] | 
Cc1cccc(CN2CCc3c(OCC(=O)N4CCCc5ccccc54)cccc3C2=O)c1 | inconclusive: 25.1 µM [activator, single point] | 
CCOc1ccc(NC(=O)Nc2cc(C(=O)O)ccc2N2CC3CC(C2)c2cccc(=O)n2C3)cc1 (centres undefined) | inconclusive: 5.62 µM [activator, partial curve] | 
O=C(O)CCCN1C(=O)/C(=C/c2ccncc2)SC1=S |  | inactive: -0.583%
O=C(/C=C\c1ccco1)Nc1nc(-c2ccccc2)cs1 | inconclusive: 22.4 µM [activator, single point] | 
Cc1ccc(C(=O)OC(C)CN2CCOCC2)cc1 (centres undefined) | active: 22.4 µM | 
CN(CC(=O)Nc1ccccc1C(F)(F)F)C(=O)COc1ccccc1Cc1ccccc1 | inconclusive: 14.1 µM [activator, single point] | 
Cc1ccc(C)n1C(CC(=O)O)c1ccc(C#N)cc1 (centres undefined) |  | inactive: -3.7%
CCOC(=O)c1[nH]c2ccc(OCC)cc2c1NC(=O)CN1CCCC(C)C1 (centres undefined) | inconclusive: 11.2 µM [activator, partial curve, poor fit] | 
COc1ccc(N2CCN(S(=O)(=O)c3c(C)nc4scc(C)n4c3=O)CC2)cc1 |  | inactive: -8.82%
CN(C(=O)CCN1C(=O)/C(=C/c2ccccc2F)SC1=S)C1CCS(=O)(=O)C1 (centres undefined) | inconclusive: 3.55 µM [activator, full curve, poor fit] | 
N/C(CS(=O)(=O)c1ccccn1)=N\OC(=O)c1ccccc1Cl |  | inactive: 2.85%
Cc1cccc(NC(=O)c2sc3nc(N4CCOCC4)c4c(c3c2N)CCCC4)c1 | inconclusive: 3.16 µM [activator, single point] | 
O=C(COc1ccc(Cl)cc1Br)Nc1ccccc1N1CCCC1 | inconclusive: 15.8 µM [activator, single point] | 
Cc1ccc([N+](=O)[O-])cc1N/C=C1\CCCCC1=O | inconclusive: 0.562 µM [activator, full curve, poor fit] | 
Oc1ccc(Cl)cc1-c1cc(-c2ccccc2)n[nH]1 | inconclusive: 22.4 µM [activator, single point] | 
O=c1[nH]c(SCc2nc3ccccc3c(=O)n2-c2ccccc2C(F)(F)F)nc2ccccc12 | inconclusive: 12.6 µM [activator, partial curve] | 
Cc1nn2c(-c3ccccc3)ccnc2c1Br |  | inactive: -9.02%

A few values from the results shown:
Potency with `O=C(Nc1ccccc1Cc1ccccc1)c1ccccc1F` is entered as inconclusive: 35.5 µM [activator, single point]
growth rescue (activation) with `CCc1nc2oc3cc(OC)ccc3c(=O)c2c(=O)n1Cc1ccco1` is entered as inactive: 7.99%
growth rescue (activation) with `Cc1ccc(C)n1C(CC(=O)O)c1ccc(C#N)cc1` (centres undefined) is entered as inactive: -3.7%
